Experimental data: PubChem BioAssay AID652243 (Drosophila RNAi Screening Center, 2013)
In all, the deposit lists about 24,000 reagents; shown is a random part of those with a known target gene and a result. In the full data, 246 (1%) were called active. 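Plates not normalised; calls are printed but the firefly/Renilla ratio behind them is not deposited; fold cut for lowering reported inconsistently.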 Raw values vary from plate to plate and are shown uncorrected. A plus sign joins genes that one reagent is predicted to hit. No sequences are given here. Not stated in the record: the amount of reagent.

Assay: 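Knock-downs that decrease or increase androgen receptor reporter signal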 (primary screen)
System: Drosophila S2R+ cells
Knock-down reagent: long dsRNA against Drosophila genes
Duration: 72 h (48 h, then 24 h hormone)
Challenge: synthetic androgen R1881 at 10 nM for 24 h
Measured: 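Firefly light from an androgen-responsive reporter and Renilla control light per well, raw and unnormalised, for each of two replicates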
Reading the numbers: firefly reporter light: higher = more light from androgen-responsive reporter; Renilla control light: higher = more constitutive control signal (cell number, transfection)
Rule for the call: 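Across duplicate plates, a knock-down whose log firefly/Renilla ratio shifted a set fold down or up from the GFP/LacZ control mean was a hit; the downward cut appears as both 1.5 and 3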
Calls: active = hit: reporter lowered or raised; inactive = no hit

The opening 7 entries, to show the layout:
target | DRSC id | firefly reporter light, replicate 1 | firefly reporter light, replicate 2 | Renilla control light, replicate 1 | Renilla control light, replicate 2 | Outcome
CG11906 (GeneID 37209) | DRSC06096 | 73892 | 91749 | 7.74e5 | 8.60e5 | inactive
RpL23A (GeneID 38208) | DRSC08694 | 7.23e5 | 2.12e5 | 1.00e6 | 4.17e5 | inactive
RpL23A (GeneID 38208) | DRSC22035 | 6.37e5 | 6.38e5 | 2.67e6 | 1.56e6 | inactive
RpL23A (GeneID 38208) | DRSC25828 | 1.59e5 | 1.64e5 | 7.10e5 | 4.08e5 | inactive
knon (GeneID 36845) | DRSC07049 | 51407 | 74030 | 9.74e5 | 9.74e5 | inactive
CG33120 (GeneID 326260) | DRSC02073 | 1.14e6 | 7.61e5 | 2.47e6 | 1.93e6 | inactive
phu (GeneID 41135) | DRSC16390 | 1.24e5 | 3.41e5 | 2.86e6 | 4.01e6 | active

Results, from the start:
target | DRSC id | firefly reporter light, replicate 1 | firefly reporter light, replicate 2 | Renilla control light, replicate 1 | Renilla control light, replicate 2 | Outcome
CG11906 (GeneID 37209) | DRSC06096 | 73892 | 91749 | 7.74e5 | 8.60e5 | inactive
RpL23A (GeneID 38208) | DRSC08694 | 7.23e5 | 2.12e5 | 1.00e6 | 4.17e5 | inactive
RpL23A (GeneID 38208) | DRSC22035 | 6.37e5 | 6.38e5 | 2.67e6 | 1.56e6 | inactive
RpL23A (GeneID 38208) | DRSC25828 | 1.59e5 | 1.64e5 | 7.10e5 | 4.08e5 | inactive
knon (GeneID 36845) | DRSC07049 | 51407 | 74030 | 9.74e5 | 9.74e5 | inactive
CG33120 (GeneID 326260) | DRSC02073 | 1.14e6 | 7.61e5 | 2.47e6 | 1.93e6 | inactive
phu (GeneID 41135) | DRSC16390 | 1.24e5 | 3.41e5 | 2.86e6 | 4.01e6 | active
phu (GeneID 41135) | DRSC39306 | – | – | – | – | inactive
CG10680 (GeneID 35282) | DRSC02093 | 1.54e5 | 1.89e5 | 1.86e6 | 1.70e6 | inactive
Cubn2 (GeneID 39334) | DRSC10561 | 1.33e5 | 1.51e5 | 1.41e6 | 1.37e6 | inactive
Cubn2 (GeneID 39334) | DRSC22044 | 7.30e5 | 8.06e5 | 2.05e6 | 2.08e6 | inactive
CG11892 (GeneID 43053) | DRSC14428 | 59667 | 80651 | 4.95e5 | 8.83e5 | inactive
robls54B (GeneID 5740248) | DRSC38867 | 9.73e5 | 8.69e5 | 1.99e6 | 1.77e6 | inactive
Spf30 (GeneID 7354399) | DRSC11976 | 54942 | 43802 | 1.54e6 | 1.60e6 | inactive
Ir54a + sub | DRSC06459 | 81190 | 67718 | 1.69e6 | 1.69e6 | inactive
Rtnl2 (GeneID 40903) | DRSC12609 | 1.00e5 | 1.02e5 | 1.52e6 | 1.36e6 | inactive
Rtnl2 (GeneID 40903) | DRSC21655 | 7.12e5 | 6.25e5 | 2.87e6 | 2.39e6 | inactive
Rtnl2 (GeneID 40903) | DRSC26022 | 3.60e5 | 2.97e5 | 8.72e5 | 5.77e5 | inactive
msb1l (GeneID 35254) | DRSC03572 | 7.24e5 | 1.07e6 | 1.51e6 | 1.56e6 | inactive
msb1l (GeneID 35254) | DRSC26438 | 3.13e5 | 2.74e5 | 5.27e5 | 5.53e5 | inactive
spidey (GeneID 31703) | DRSC17932 | 5.05e5 | 3.81e5 | 2.86e6 | 2.33e6 | inactive
spidey (GeneID 31703) | DRSC30107 | 8.43e5 | 7.55e5 | 1.17e6 | 1.12e6 | inactive
Cftr (GeneID 42928) | DRSC15872 | 73174 | 1.03e5 | 5.27e5 | 6.61e5 | inactive
Cftr (GeneID 42928) | DRSC24655 | 6.88e5 | 8.13e5 | 7.39e5 | 9.08e5 | inactive
nyo (GeneID 43716) | DRSC15029 | 2.03e5 | 2.10e5 | 2.30e6 | 2.72e6 | inactive
nyo (GeneID 43716) | DRSC15030 | 1.83e5 | 1.34e5 | 1.04e6 | 1.13e6 | inactive
Amnionless (GeneID 33199) | DRSC00317 | 1.23e5 | 1.37e5 | 6.86e5 | 6.61e5 | inactive
CG2070 (GeneID 35706) | DRSC06814 | 3.83e5 | 3.29e5 | 1.41e6 | 1.30e6 | inactive
Mco3 (GeneID 43134) | DRSC15926 | 2.25e5 | 2.88e5 | 3.33e6 | 3.29e6 | inactive
Neos (GeneID 38795) | DRSC11235 | 8.20e5 | 8.31e5 | 1.28e6 | 1.43e6 | inactive
fs(1)K10 (GeneID 47781) | DRSC18775 | 72159 | 60645 | 5.66e5 | 4.11e5 | inactive
fs(1)K10 (GeneID 47781) | DRSC25258 | 6.29e5 | 4.46e5 | 4.98e5 | 4.22e5 | inactive
Gos28 (GeneID 248102) | DRSC16292 | 2.91e5 | 2.28e5 | 3.06e6 | 3.03e6 | inactive
Gos28 (GeneID 248102) | DRSC22859 | 4.98e5 | 8.10e5 | 9.80e5 | 1.90e6 | inactive
dgrn (GeneID 40725) | DRSC12154 | 21085 | 37949 | 2.67e5 | 2.49e5 | inactive
CG7882 (GeneID 35520) | DRSC04899 | 3.20e5 | 2.58e5 | 1.88e6 | 1.38e6 | inactive
CG18766 (GeneID 59150) | DRSC15936 | 71510 | 90245 | 6.80e5 | 7.10e5 | inactive
CG18766 (GeneID 59150) | DRSC25739 | 1.27e6 | 6.61e5 | 1.36e6 | 8.86e5 | inactive
CG8236 (GeneID 41047) | DRSC16399 | 1.43e5 | 93866 | 1.87e6 | 1.75e6 | inactive
CG8236 (GeneID 41047) | DRSC26321 | 2.05e5 | 2.24e5 | 4.81e5 | 5.07e5 | inactive
CG32271 (GeneID 38392) | DRSC08198 | 61626 | 80462 | 9.39e5 | 9.34e5 | inactive
CG32271 (GeneID 38392) | DRSC27093 | 3.35e5 | 2.72e5 | 6.97e5 | 6.04e5 | inactive
CG32299 + CG32298 | DRSC07980 | 1.76e5 | 1.77e5 | 4.74e5 | 5.41e5 | inactive
CG32299 + CG32298 | DRSC22354 | 5.62e5 | 5.52e5 | 6.84e5 | 7.39e5 | inactive
CG32299 + CG32298 | DRSC25827 | 5.06e5 | 5.23e5 | 7.60e5 | 5.78e5 | inactive
CG11951 (GeneID 43463) | DRSC14442 | 2.33e5 | 1.97e5 | 2.43e6 | 2.99e6 | inactive
CG11951 (GeneID 43463) | DRSC25645 | 9.74e5 | 1.07e6 | 9.34e5 | 1.01e6 | inactive
CSN7 (GeneID 35816) | DRSC06807 | 7.99e5 | 9.58e5 | 1.69e6 | 1.57e6 | inactive
CSN7 (GeneID 35816) | DRSC06808 | 3.66e5 | 3.21e5 | 1.53e6 | 1.69e6 | inactive
CheB74a (GeneID 3772073) | DRSC38835 | 7.96e5 | 8.42e5 | 1.72e6 | 1.56e6 | inactive
Syx18 (GeneID 42933) | DRSC14628 | 1.12e5 | 1.01e5 | 7.89e5 | 6.69e5 | inactive
CG5853 (GeneID 34322) | DRSC01103 | 2.32e5 | 2.08e5 | 2.26e5 | 2.36e5 | inactive
CG5853 (GeneID 34322) | DRSC02906 | 1.43e6 | 9.79e5 | 3.04e6 | 2.71e6 | inactive
CG14265 (GeneID 31297) | DRSC18591 | 2.50e5 | 2.34e5 | 3.68e6 | 3.59e6 | inactive
CG14265 (GeneID 31297) | DRSC29212 | 5.12e5 | 5.81e5 | 1.07e6 | 9.98e5 | inactive
CR30409 (GeneID 37696) | DRSC22058 | 8.66e5 | 7.80e5 | 2.30e6 | 1.67e6 | inactive
Alp5 (GeneID 42482) | DRSC14269 | 48543 | 47333 | 4.87e5 | 4.62e5 | inactive
Alp5 (GeneID 42482) | DRSC29539 | 4.69e5 | 6.40e5 | 8.74e5 | 8.74e5 | inactive
